Measured values taken from paper PMC10282087.

Amino acid sequences for entries named in this document (tags omitted).
UniProt Q9UHP3: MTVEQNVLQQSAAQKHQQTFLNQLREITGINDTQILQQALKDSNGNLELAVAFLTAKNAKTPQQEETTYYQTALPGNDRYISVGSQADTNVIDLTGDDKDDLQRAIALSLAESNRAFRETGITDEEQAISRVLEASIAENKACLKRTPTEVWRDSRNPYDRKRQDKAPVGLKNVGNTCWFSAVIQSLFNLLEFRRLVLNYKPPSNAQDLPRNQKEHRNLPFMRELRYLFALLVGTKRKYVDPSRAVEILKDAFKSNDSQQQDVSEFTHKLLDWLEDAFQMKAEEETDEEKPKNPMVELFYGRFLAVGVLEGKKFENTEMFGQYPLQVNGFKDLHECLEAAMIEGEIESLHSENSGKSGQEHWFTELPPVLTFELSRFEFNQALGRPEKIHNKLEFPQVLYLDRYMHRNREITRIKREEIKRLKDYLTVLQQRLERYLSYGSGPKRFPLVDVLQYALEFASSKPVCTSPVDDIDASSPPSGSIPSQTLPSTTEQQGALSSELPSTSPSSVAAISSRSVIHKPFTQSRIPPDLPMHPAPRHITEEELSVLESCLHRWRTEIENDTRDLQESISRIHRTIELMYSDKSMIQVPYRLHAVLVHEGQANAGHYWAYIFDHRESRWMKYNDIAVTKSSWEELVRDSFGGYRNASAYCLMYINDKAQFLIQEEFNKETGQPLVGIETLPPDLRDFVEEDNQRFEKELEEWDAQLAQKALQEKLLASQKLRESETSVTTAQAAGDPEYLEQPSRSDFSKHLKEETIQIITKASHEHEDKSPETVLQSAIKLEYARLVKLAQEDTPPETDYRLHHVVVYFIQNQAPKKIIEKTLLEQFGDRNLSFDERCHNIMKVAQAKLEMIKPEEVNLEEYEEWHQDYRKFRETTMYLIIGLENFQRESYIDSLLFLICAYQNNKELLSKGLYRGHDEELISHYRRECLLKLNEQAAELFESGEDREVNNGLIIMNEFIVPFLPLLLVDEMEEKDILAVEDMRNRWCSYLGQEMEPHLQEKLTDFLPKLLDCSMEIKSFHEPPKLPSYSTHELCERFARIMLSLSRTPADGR
UniProt Q14145: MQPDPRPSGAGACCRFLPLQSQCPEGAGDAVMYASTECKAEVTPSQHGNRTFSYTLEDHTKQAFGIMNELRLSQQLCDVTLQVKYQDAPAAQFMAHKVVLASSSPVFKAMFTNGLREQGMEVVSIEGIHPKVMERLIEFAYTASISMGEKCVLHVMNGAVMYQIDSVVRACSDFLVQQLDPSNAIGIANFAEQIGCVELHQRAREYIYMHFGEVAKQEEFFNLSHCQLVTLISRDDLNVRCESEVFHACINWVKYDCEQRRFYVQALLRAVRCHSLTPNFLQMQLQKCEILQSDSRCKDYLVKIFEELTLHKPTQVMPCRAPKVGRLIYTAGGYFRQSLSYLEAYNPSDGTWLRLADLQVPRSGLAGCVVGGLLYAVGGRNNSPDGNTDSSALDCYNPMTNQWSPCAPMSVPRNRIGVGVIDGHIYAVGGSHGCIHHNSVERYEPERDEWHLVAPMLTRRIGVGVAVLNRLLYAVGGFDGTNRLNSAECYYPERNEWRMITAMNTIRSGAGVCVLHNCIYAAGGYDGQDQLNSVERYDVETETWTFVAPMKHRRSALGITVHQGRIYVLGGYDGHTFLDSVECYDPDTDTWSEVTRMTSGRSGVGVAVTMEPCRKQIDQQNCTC

Target: FLAG-tagged USP25 (ubiquitin-specific peptidase 25) (human) (UniProt Q9UHP3)
Assay: affinity purification with mass spectrometry; FLAG-USP25 transiently transfected in HEK293T for 48 h, immunoprecipitated with anti-Flag magnetic beads, SDS-PAGE, gel sections digested with trypsin, LC-MS/MS

Kelch-like ECH-associated protein 1 (KEAP1), endogenous in HEK293T cells (from UniProt Q14145 1-624)
binding: binds

These are yes or no findings as the source states them, for the method shown. Binding seen in cells or lysates may run through a third protein. A yes stands for co-enrichment or nearness to the bait. Other partners may have been found.
